Laboratory results from the supplement of paper PMC6331611.
± gives the standard deviation of the averaged measurements. Over roughly 1,600 compounds, “normalized intracellular growth (luminescence, IQM-normalized) in RAW264.7 macrophages” has its median near 1; the lowest 2% begin near 0.43. Some of the results follow.

Test system: Salmonella enterica serovar Typhimurium SL1344
Assay: normalized intracellular growth (luminescence, IQM-normalized) in RAW264.7 macrophages (fraction of plate interquartile mean); higher = more bacterial growth (less inhibition)
Conditions: 10 µM

| SMILES | normalized intracellular growth (time point: T3 (3 h)) | normalized intracellular growth (time point: Tfinal (~6 h)) |
| --- | --- | --- |
| C=CCSCC1Nc2cc(Cl)c(S(N)(=O)=O)cc2S(=O)(=O)N1 (stereo not drawn) | 1.07 ± 0.037 | 1.08 ± 0.043 |
| O=C(/C=C/C=C/c1ccc2c(c1)OCO2)N1CCCCC1 | 1.04 ± 0.069 | 0.974 ± 0.05 |
| CCC(=O)OCC(=O)[C@@]1(OC(=O)CC)[C@@H](C)C[C@H]2[C@@H]3CCC4=CC(=O)C=C[C@]4(C)[C@@]3(Cl)[C@@H](O)C[C@@]21C | 0.976 ± 0.026 | 0.962 ± 0.086 |
| CCN(CC)Cc1cc(Nc2ccnc3cc(Cl)ccc23)ccc1O | 0.983 ± 0.033 | 1.1 ± 0.075 |
| COc1ccccc1N1CCN(CCCNc2cc(=O)n(C)c(=O)n2C)CC1 | 0.98 ± 0.024 | 0.983 ± 0.23 |
| CC(C)NCC(O)c1cc(O)cc(O)c1 (stereo not drawn) | 1.06 ± 0.025 | 0.981 ± 0.077 |
| O=C(O)CN(CCN(CC(=O)O)CC(=O)O)CCN(CC(=O)O)CC(=O)O | 1.11 ± 0.05 | 1.04 ± 0.039 |
| C#CCN(C)CCCOc1ccc(Cl)cc1Cl | 1.06 ± 0.13 | 1.18 ± 0.096 |
| C[n+]1ccccc1/C=N/O | 1.04 ± 0.036 | 0.938 ± 0.23 |
| Cc1cccc(Nc2ccccc2C(=O)O)c1C | 0.984 ± 0.05 | 1.03 ± 0.097 |
| CCC(C)n1ncn(-c2ccc(N3CCN(c4ccc(OCC5COC(Cn6cncn6)(c6ccc(Cl)cc6Cl)O5)cc4)CC3)cc2)c1=O (stereo not drawn) | 1 ± 0.06 | 1.12 ± 0.11 |
| O=C(O)CCNC(=O)c1ccc(/N=N/c2ccc(O)c(C(=O)O)c2)cc1 | 0.986 ± 0.04 | 0.804 ± 0.092 |
| C[C@H]1[C@H](OC(=O)CCC(=O)O)O[C@@H]2O[C@@]3(C)CC[C@H]4[C@H](C)CC[C@@H]1[C@@]24OO3 | 0.899 ± 0.045 | 0.869 ± 0.028 |
| CC(N)C(=O)OC(C)(C)Cc1ccc(Cl)cc1 (stereo not drawn) | 1.15 ± 0.072 | 1.46 ± 0.051 |
| CC[n+]1c(-c2ccccc2)c2cc(N)ccc2c2ccc(N)cc21 | 0.993 ± 0.05 | 1.13 ± 0.11 |
| O=C1OC(CN2CCOCC2)CN1/N=C/c1ccc([N+](=O)[O-])o1 (stereo not drawn) | 1.08 ± 0.1 | 0.97 ± 0.43 |
| CNCCCN1c2ccccc2CCc2ccccc21 | 1.075 ± 0.0098 | 1.04 ± 0.061 |
| O=C1CCC(N2C(=O)c3ccccc3C2=O)C(=O)N1 (stereo not drawn) | 0.966 ± 0.11 | 1.21 ± 0.21 |
| CC(=O)OCC1=C(C(=O)O)N2C(=O)[C@@H](NC(=O)Cc3cccs3)[C@H]2SC1 | 0.979 ± 0.037 | 1.01 ± 0.027 |
| CCOc1ccc(NC(=O)CC(C)O)cc1 (stereo not drawn) | 0.969 ± 0.045 | 1.202 ± 0.0076 |

In a second layout: 11 of the compounds above.
SMILES	normalized intracellular growth (time point: T3 (3 h))	normalized intracellular growth (time point: Tfinal (~6 h))
C=CCSCC1Nc2cc(Cl)c(S(N)(=O)=O)cc2S(=O)(=O)N1 (stereo not drawn)	1.07 ± 0.037	1.08 ± 0.043
O=C(/C=C/C=C/c1ccc2c(c1)OCO2)N1CCCCC1	1.04 ± 0.069	0.974 ± 0.05
CCC(=O)OCC(=O)[C@@]1(OC(=O)CC)[C@@H](C)C[C@H]2[C@@H]3CCC4=CC(=O)C=C[C@]4(C)[C@@]3(Cl)[C@@H](O)C[C@@]21C	0.976 ± 0.026	0.962 ± 0.086
CCN(CC)Cc1cc(Nc2ccnc3cc(Cl)ccc23)ccc1O	0.983 ± 0.033	1.1 ± 0.075
COc1ccccc1N1CCN(CCCNc2cc(=O)n(C)c(=O)n2C)CC1	0.98 ± 0.024	0.983 ± 0.23
CC(C)NCC(O)c1cc(O)cc(O)c1 (stereo not drawn)	1.06 ± 0.025	0.981 ± 0.077
O=C(O)CN(CCN(CC(=O)O)CC(=O)O)CCN(CC(=O)O)CC(=O)O	1.11 ± 0.05	1.04 ± 0.039
C#CCN(C)CCCOc1ccc(Cl)cc1Cl	1.06 ± 0.13	1.18 ± 0.096
C[n+]1ccccc1/C=N/O	1.04 ± 0.036	0.938 ± 0.23
Cc1cccc(Nc2ccccc2C(=O)O)c1C	0.984 ± 0.05	1.03 ± 0.097
CCC(C)n1ncn(-c2ccc(N3CCN(c4ccc(OCC5COC(Cn6cncn6)(c6ccc(Cl)cc6Cl)O5)cc4)CC3)cc2)c1=O (stereo not drawn)	1 ± 0.06	1.12 ± 0.11

Later entries.

| SMILES | normalized intracellular growth (time point: T3 (3 h)) | normalized intracellular growth (time point: Tfinal (~6 h)) |
| --- | --- | --- |
| CCN(CC)CCNC(=O)COc1ccc(OC)cc1 | 1.04 ± 0.043 | 0.942 ± 0.14 |
| Cc1nc2n(c(=O)c1CCN1CCC(c3noc4cc(F)ccc34)CC1)CCCC2O (stereo not drawn) | 0.996 ± 0.04 | 0.965 ± 0.023 |
| C=CCCCCCCCCC(=O)O | 0.9889 ± 0.0075 | 0.751 ± 0.22 |
| CC1(C)S[C@@H]2[C@H](NC(=O)Cc3ccccc3)C(=O)N2[C@H]1C(=O)O | 0.828 ± 0.13 | 1.35 ± 0.094 |
| CCCCc1nc(Cl)c(CO)n1Cc1ccc(-c2ccccc2-c2nnn[nH]2)cc1 | 0.909 ± 0.056 | 0.215 ± 0.0058 |
| Cc1cc2nc3c(=O)[nH]c(=O)nc-3n(CC(O)C(O)C(O)COP(=O)(O)O)c2cc1C (stereo not drawn) | 0.886 ± 0.064 | 1.08 ± 0.19 |
| O=C(O)CSCC(=O)NC1CCSC1=O (stereo not drawn) | 1.06 ± 0.043 | 0.876 ± 0.14 |
| NCC[C@H](O)C(=O)N[C@@H]1C[C@H](N)[C@@H](O[C@H]2O[C@H](CN)[C@@H](O)[C@H](O)[C@H]2O)[C@H](O)[C@H]1O[C@H]1O[C@H](CO)[C@@H](O)[C@H](N)[C@H]1O | 0.99 ± 0.054 | 0.936 ± 0.045 |
| Fc1ccc([C@@H]2CCNC[C@H]2COc2ccc3c(c2)OCO3)cc1 | 0.885 ± 0.052 | 0.978 ± 0.25 |
| Nc1nc(O)c2ncn(CCC(CO)CO)c2n1 | 0.994 ± 0.012 | 1.04 ± 0.062 |
| CN(C/C=C/C#CC(C)(C)C)Cc1cccc2ccccc12 | 1.01 ± 0.042 | 0.997 ± 0.057 |
| NCCC[C@H](N)CC(=O)N[C@H]1CNC(=O)[C@H]([C@H]2C[C@H](O)NC(N)=N2)NC(=O)/C(=C/NC(N)=O)NC(=O)[C@H](CO)NC(=O)[C@H](CO)NC1=O | 1.01 ± 0.093 | 0.9882 ± 0.0043 |
| NC(CO)C(=O)NNCc1ccc(O)c(O)c1O (stereo not drawn) | 1 ± 0.013 | 1.05 ± 0.023 |
| CN(C)CCCN1c2ccccc2CCc2ccccc21 | 1.02 ± 0.036 | 1.08 ± 0.019 |
| C[C@H]1COc2c(N3CCN(C)CC3)c(F)cc3c(=O)c(C(=O)O)cn1c23 | 1.245 ± 0.0094 | 0.00765 ± 0.001 |
| C[N+](C)(C)CCO.[Cl-] | 1.1 ± 0.057 | 0.985 ± 0.068 |
| CN1CCC(OC(c2ccccc2)c2ccccc2)CC1 | 1 ± 0.042 | 1.26 ± 0.073 |
| O=C(Oc1cccc2cccnc12)c1ccccc1 | 1.06 ± 0.062 | 0.905 ± 0.078 |
| CC(=O)SCC(Cc1ccccc1)C(=O)NCC(=O)OCc1ccccc1 (stereo not drawn) | 1.01 ± 0.039 | 0.954 ± 0.089 |
| COC(=O)C1=C(C)NC(C)=C(C(=O)OC(C)C)C1c1cccc2nonc12 (stereo not drawn) | 1.07 ± 0.06 | 1.17 ± 0.028 |

| SMILES | normalized intracellular growth (time point: T3 (3 h)) | normalized intracellular growth (time point: Tfinal (~6 h)) |
| --- | --- | --- |
| CN1CCN(c2cc3c(cc2F)c(=O)c(C(=O)O)cn3-c2ccc(F)cc2)CC1 | 0.634 ± 0.14 | 0.982 ± 0.093 |
| O=C(O)CCCC[C@@H]1SC[C@@H]2NC(=O)N[C@@H]21 | 1 ± 0.033 | 0.954 ± 0.12 |
| CC1COc2c(N3CCN(C)CC3)c(F)cc3c(=O)c(C(=O)O)cn1c23 (stereo not drawn) | 0.856 ± 0.034 | 0.134 ± 0.0023 |
| CC(C)C(=O)Nc1ccc([N+](=O)[O-])c(C(F)(F)F)c1 | 1.09 ± 0.013 | 1.04 ± 0.029 |
| CC(=O)Oc1cc2c(s1)CCN(C(C(=O)C1CC1)c1ccccc1F)C2 (stereo not drawn) | 1.1 ± 0.063 | 1.04 ± 0.15 |
| Cn1cnc([N+](=O)[O-])c1Sc1ncnc2[nH]cnc12 | 1.04 ± 0.028 | 0.852 ± 0.032 |
| CC(=O)OCC[N+](C)(C)C | 0.952 ± 0.033 | 1.11 ± 0.11 |
| OCCN1C[C@H](O)[C@@H](O)[C@H](O)[C@H]1CO | 1.07 ± 0.054 | 1.1 ± 0.24 |
| CC1=C(C/C=C(\C)CCC[C@H](C)CCC[C@H](C)CCCC(C)C)C(=O)c2ccccc2C1=O | 0.968 ± 0.067 | 1.08 ± 0.064 |
| Cc1ncc(COP(=O)([O-])[O-])c(CN(CCN(CC(=O)O)Cc2c(COP(=O)([O-])O)cnc(C)c2O)CC(=O)O)c1O.[Mn].[Na+].[Na+].[Na+] | 0.972 ± 0.075 | 1.17 ± 0.028 |
| CC(=O)Nc1cccc(O)c1 | 1 ± 0.051 | 0.73 ± 0.069 |
| Cc1cnc(C(=O)O)c[n+]1[O-] | 1.04 ± 0.04 | 0.725 ± 0.081 |
| O=C(O)C1(C(=O)O)CCC1.[NH2-].[NH2-].[Pt+2] | 1.01 ± 0.067 | 1.19 ± 0.071 |
| OCc1ccccn1 | 1.02 ± 0.06 | 0.892 ± 0.1 |
| COc1ccc(CN2CCN(C(c3ccc(F)cc3)c3ccc(F)cc3)CC2)c(OC)c1OC | 1.08 ± 0.13 | 0.896 ± 0.23 |
| CC(C)Cc1ccc(C(C)C(=O)O)cc1 (stereo not drawn) | 0.9911 ± 0.0085 | 1.18 ± 0.062 |
| CC(C)(C)NC[C@H](O)COc1ccccc1C1CCCC1 | 0.99 ± 0.017 | 1.22 ± 0.12 |
| COc1ccc(C(=O)c2ccccc2O)c(O)c1 | 1 ± 0.047 | 1.24 ± 0.031 |
| COCCc1ccc(OCC(O)CNC(C)C)cc1 (stereo not drawn) | 0.997 ± 0.035 | 1.24 ± 0.1 |
